# Measurements from PMC6313912.
# Amino acid sequences for entries named in this document (tags omitted).
# UniProt P06241: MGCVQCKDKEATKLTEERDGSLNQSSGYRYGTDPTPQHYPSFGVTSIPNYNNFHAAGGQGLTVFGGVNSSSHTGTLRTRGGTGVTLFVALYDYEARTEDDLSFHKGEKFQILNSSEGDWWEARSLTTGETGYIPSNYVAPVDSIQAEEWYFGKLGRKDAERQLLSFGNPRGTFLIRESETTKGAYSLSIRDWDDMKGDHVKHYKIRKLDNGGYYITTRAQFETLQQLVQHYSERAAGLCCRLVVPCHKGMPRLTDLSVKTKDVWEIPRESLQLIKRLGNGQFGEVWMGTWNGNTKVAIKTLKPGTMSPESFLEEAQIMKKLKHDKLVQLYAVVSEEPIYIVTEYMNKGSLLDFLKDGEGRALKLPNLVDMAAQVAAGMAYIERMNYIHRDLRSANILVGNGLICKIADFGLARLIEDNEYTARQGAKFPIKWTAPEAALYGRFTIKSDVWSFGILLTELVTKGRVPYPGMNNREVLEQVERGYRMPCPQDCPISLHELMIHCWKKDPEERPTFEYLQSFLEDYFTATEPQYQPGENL
# UniProt Q96SN8: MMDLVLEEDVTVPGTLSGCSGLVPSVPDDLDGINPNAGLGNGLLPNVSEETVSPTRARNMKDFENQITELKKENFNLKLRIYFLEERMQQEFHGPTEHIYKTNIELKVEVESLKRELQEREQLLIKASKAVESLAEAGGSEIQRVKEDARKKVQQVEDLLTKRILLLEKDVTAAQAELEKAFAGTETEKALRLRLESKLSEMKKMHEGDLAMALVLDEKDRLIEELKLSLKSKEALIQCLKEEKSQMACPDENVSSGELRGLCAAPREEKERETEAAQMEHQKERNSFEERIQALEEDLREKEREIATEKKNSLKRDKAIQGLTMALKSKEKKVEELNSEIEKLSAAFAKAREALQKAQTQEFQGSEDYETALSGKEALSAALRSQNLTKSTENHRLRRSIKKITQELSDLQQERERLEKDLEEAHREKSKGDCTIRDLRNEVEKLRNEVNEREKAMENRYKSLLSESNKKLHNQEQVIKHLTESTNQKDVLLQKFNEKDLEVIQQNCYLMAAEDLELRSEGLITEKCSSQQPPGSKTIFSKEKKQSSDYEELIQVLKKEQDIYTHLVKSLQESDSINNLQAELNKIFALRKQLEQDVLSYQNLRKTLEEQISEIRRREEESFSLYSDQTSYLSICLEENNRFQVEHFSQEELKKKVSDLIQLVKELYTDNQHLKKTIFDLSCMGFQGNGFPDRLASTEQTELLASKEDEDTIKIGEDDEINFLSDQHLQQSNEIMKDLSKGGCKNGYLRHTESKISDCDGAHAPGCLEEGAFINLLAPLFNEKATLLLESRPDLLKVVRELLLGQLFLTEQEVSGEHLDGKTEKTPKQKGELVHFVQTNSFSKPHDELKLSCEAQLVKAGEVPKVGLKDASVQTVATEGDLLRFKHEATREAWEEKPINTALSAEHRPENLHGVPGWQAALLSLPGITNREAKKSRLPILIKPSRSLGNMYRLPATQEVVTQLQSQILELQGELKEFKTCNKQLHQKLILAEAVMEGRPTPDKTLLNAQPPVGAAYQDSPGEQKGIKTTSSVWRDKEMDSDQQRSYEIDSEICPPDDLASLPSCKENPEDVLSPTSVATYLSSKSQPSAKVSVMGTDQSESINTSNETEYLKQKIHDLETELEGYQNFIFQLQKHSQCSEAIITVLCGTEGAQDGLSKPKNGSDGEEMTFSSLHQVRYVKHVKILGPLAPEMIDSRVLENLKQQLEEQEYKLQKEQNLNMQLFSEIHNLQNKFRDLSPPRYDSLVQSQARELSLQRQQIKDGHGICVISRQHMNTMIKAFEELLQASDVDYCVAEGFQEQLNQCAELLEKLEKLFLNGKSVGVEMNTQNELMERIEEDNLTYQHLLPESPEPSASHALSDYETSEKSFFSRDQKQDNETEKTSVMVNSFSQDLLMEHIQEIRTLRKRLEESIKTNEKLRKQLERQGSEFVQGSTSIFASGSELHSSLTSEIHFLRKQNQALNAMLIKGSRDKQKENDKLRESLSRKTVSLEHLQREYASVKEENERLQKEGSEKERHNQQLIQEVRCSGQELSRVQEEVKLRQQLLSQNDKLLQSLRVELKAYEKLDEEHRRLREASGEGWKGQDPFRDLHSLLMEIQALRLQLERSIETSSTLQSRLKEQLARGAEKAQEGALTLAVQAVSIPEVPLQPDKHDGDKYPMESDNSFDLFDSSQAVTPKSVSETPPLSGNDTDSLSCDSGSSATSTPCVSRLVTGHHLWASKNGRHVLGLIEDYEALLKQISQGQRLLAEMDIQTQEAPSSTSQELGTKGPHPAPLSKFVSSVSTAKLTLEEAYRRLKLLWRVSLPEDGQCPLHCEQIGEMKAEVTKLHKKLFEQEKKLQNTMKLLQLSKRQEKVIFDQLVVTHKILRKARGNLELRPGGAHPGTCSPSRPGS
# UniProt Q99996: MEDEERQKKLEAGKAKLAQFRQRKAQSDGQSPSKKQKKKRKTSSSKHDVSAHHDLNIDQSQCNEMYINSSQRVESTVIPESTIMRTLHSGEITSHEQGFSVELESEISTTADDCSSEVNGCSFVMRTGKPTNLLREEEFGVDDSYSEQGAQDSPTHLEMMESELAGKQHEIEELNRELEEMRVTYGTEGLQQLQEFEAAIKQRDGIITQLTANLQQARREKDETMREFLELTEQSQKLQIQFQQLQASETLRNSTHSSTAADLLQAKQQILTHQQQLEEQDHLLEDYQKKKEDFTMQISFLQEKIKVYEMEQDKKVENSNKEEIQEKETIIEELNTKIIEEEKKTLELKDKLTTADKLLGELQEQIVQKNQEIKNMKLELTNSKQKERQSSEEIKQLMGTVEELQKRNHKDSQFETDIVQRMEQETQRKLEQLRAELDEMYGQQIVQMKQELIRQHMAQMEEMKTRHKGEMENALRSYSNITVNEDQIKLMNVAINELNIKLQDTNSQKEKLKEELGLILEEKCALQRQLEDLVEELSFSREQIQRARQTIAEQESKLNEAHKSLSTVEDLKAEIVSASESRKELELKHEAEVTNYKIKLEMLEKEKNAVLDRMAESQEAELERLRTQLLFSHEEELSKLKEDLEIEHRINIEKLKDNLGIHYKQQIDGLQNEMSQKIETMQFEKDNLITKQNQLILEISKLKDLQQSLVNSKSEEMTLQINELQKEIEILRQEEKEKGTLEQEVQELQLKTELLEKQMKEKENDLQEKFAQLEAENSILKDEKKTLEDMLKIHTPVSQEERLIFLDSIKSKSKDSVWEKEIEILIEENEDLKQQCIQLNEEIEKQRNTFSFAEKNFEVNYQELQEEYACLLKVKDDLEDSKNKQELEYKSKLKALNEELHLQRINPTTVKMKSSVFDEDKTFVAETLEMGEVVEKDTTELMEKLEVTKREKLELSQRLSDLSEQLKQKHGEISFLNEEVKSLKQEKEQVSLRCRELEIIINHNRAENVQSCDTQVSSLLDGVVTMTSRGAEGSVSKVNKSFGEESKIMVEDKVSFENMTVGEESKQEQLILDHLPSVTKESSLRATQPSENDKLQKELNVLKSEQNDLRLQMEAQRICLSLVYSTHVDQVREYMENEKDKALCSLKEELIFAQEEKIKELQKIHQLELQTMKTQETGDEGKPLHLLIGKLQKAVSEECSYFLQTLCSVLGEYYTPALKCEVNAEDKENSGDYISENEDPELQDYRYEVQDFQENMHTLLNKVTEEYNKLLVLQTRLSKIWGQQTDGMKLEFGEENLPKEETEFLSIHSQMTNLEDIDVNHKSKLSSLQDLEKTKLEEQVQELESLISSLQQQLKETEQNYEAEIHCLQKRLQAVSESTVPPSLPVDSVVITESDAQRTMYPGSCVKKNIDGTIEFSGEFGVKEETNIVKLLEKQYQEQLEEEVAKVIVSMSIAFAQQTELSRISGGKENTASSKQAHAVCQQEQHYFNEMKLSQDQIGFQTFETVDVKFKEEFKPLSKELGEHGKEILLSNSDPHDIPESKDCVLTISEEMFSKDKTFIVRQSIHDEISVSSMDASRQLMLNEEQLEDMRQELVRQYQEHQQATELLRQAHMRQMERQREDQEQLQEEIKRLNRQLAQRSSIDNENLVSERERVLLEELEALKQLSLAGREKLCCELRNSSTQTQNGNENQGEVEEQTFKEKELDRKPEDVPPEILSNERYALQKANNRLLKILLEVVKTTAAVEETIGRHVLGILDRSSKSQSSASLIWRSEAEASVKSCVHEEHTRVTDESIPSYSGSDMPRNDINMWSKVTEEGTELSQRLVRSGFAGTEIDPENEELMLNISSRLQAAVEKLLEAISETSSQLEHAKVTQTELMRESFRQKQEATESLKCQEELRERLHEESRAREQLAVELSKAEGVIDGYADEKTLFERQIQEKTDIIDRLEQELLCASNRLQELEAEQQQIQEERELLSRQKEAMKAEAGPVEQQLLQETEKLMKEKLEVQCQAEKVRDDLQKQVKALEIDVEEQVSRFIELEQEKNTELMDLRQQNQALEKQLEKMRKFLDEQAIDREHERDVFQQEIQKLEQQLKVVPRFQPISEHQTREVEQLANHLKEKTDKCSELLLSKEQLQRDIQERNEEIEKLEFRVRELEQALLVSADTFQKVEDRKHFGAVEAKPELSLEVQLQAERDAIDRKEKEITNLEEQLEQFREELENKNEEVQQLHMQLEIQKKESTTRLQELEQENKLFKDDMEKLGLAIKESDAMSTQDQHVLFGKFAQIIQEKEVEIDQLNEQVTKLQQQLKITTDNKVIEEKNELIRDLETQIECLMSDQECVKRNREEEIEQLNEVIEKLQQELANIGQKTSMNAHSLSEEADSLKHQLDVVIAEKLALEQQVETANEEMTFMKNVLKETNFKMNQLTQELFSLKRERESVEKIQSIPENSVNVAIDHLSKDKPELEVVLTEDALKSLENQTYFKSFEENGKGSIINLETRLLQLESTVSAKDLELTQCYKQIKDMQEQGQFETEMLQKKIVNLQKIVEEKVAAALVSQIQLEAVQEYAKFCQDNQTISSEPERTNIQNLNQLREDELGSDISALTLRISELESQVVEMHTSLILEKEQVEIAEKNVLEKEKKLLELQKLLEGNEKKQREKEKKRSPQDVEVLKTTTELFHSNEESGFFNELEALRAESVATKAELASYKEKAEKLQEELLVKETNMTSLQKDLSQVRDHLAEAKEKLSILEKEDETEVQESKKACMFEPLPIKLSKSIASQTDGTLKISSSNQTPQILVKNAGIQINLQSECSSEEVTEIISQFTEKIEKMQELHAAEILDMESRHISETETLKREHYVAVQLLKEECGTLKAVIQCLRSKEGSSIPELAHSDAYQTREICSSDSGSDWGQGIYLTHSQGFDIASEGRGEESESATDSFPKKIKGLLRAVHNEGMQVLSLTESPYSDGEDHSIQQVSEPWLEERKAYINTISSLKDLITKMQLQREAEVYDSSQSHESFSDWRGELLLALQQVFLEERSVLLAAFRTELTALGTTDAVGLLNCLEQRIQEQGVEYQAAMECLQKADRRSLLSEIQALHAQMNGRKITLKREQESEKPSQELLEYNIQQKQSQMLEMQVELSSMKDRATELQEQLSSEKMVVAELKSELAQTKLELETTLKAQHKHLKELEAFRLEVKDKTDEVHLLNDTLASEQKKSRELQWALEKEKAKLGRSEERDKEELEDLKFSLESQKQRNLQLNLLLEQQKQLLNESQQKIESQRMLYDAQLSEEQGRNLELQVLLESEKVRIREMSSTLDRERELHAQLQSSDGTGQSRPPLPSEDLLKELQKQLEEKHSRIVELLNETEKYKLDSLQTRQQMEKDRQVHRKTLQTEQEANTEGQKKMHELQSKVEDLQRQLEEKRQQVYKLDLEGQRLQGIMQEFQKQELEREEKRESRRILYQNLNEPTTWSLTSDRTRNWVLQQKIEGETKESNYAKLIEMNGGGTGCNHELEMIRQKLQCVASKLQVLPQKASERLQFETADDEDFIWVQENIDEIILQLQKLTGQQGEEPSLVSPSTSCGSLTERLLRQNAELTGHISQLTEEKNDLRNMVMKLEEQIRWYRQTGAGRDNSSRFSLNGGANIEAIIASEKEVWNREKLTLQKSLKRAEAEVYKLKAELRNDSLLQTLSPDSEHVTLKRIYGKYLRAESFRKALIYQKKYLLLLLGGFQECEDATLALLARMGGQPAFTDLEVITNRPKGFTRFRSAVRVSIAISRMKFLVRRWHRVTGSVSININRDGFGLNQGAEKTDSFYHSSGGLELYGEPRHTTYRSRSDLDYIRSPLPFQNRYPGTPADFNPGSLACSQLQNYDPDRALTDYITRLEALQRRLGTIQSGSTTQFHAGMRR
# No constants are given. Whether binding was seen depends on the method and setting. In cells and extracts the contact can be indirect. Some entries that bind do so weakly or less than the wild type.
# Target: endogenous Fyn (U-118 glioblastoma cells) (human (endogenous in U-118)) (UniProt P06241)
# Assay: co-IP; α-Fyn immunoprecipitation of endogenous Fyn from U-118 glioblastoma cells; Western blotting; IgG control
row,binding,Substance
1,binds,endogenous CDK5RAP2 (U-118 glioblastoma cells) (from UniProt Q96SN8 1-1893)
2,binds,endogenous PDE4DIP (U-118 glioblastoma cells) (from UniProt Q5VU43 1-2346)
3,binds,endogenous AKAP9 (U-118 glioblastoma cells) (from UniProt Q99996 1-3907)
